The target in test [1] is Death receptor Fas (CD95) (human (endogenous in MIAPaCa2 and AsPC1)) (UniProt P25445). The experiment in a line: co-IP; total cell lysate (200 ug) of mock and Neu2-transfected MIAPaCa2 and AsPC1 cells; anti-Fas antibody (1:100) overnight at 4 C, protein A-Sepharose 4B for 3 h; blot with anti-Neu2; rabbit IgG as negative control.
For test [2] the target is unchanged. As to the kind of experiment: co-IP; membrane fraction of mock and Neu2-transfected MIAPaCa2 and AsPC1 cells, processed as the cell lysate (anti-Fas IP, anti-Neu2 blot); rabbit IgG as negative control.

By UniProt entry, the sequences of proteins in these tests, tags left out. Residues count along the entry.
UniProt P25445, residues 26-335: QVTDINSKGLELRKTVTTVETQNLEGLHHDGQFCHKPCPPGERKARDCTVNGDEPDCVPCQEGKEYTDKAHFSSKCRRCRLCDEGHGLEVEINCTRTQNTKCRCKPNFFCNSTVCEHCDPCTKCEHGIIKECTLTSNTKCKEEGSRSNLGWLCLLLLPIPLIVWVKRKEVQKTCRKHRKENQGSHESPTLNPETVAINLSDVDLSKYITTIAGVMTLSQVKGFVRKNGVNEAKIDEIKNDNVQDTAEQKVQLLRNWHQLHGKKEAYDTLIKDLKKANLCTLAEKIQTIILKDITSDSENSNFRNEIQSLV
UniProt Q9Y3R4: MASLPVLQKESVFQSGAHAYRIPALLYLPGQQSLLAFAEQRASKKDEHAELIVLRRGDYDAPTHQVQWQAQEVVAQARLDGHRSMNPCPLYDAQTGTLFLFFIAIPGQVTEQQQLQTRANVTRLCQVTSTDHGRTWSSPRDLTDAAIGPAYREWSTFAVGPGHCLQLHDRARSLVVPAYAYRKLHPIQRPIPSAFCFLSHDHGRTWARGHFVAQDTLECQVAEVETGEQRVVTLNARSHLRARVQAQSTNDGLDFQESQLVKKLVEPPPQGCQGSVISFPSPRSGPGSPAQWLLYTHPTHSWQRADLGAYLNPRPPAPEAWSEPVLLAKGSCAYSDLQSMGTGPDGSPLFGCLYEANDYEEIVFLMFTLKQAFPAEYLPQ

These are yes or no findings as the source states them, for the method shown. Binding seen in cells or lysates may run through a third protein. Some entries that bind do so weakly or less than the wild type.

For “cytosolic sialidase Neu2 (from UniProt Q9Y3R4 1-380) (enzyme)”, the binding result in test [1] and in test [2] was “binds” in each case.

For the origin of these results see article PMC5833727.
